Reference: PubChem BioAssay AID1508597 (Cure First, 2020)

- Screen: 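Knock-downs altering ovarian cancer cell survival with or without PARP inhibitor rucaparib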 (primary screen)
- Cells: human ovarian carcinoma lines grown from tumours: OCI-P5x (papillary serous) and OCI-C5x (clear cell)
- Knock-down reagent: siRNA pool against human genes, 1.25 pmol siRNA per well
- Time to read-out: 72 h or 96 h, depending on the cell culture
- Conditions: rucaparib 20 µM (about IC30) or vehicle, present until read-out
- Read-out: 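Luminescent ATP-based viability assay read 72 or 96 h after transfection, depending on culture, given as normalised percent viability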
- Scale: viability, normalised: higher = more viable cells remaining
- Hit rule: 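Active when normalised viability falls below 80 percent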
- Meaning of the calls: active = viability under 80%; inactive = viability 80% or more
The deposit covers about 2,100 reagents; below is an unselected part. 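Calls flag viability under 80% in either arm, not effects specific to rucaparib; the reference for percent is not stated.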 Entries without a mark were called inactive. Some reagents were tested in more than one well and are listed for each. Not given: the 100% reference.

target	rucaparib or vehicle	cell line	technical replicate	viability, normalised (%)
MTRFR (GeneID 91574)	Rucaparib	OCI-C5x (clear cell)	1	70.6 (active)
MTRFR (GeneID 91574)	Rucaparib	OCI-C5x (clear cell)	2	65.9 (active)
MTRFR (GeneID 91574)	Rucaparib	OCI-C5x (clear cell)	3	36.4 (active)
MTRFR (GeneID 91574)	Rucaparib	OCI-P5x (serous)	1	68.8 (active)
MTRFR (GeneID 91574)	Rucaparib	OCI-P5x (serous)	2	75.6 (active)
MTRFR (GeneID 91574)	Rucaparib	OCI-P5x (serous)	3	74.7 (active)
MTRFR (GeneID 91574)	Vehicle	OCI-C5x (clear cell)	1	55.8 (active)
MTRFR (GeneID 91574)	Vehicle	OCI-C5x (clear cell)	2	52.4 (active)
MTRFR (GeneID 91574)	Vehicle	OCI-C5x (clear cell)	3	37.2 (active)
MTRFR (GeneID 91574)	Vehicle	OCI-P5x (serous)	1	60.1 (active)
MTRFR (GeneID 91574)	Vehicle	OCI-P5x (serous)	2	66.2 (active)
MTRFR (GeneID 91574)	Vehicle	OCI-P5x (serous)	3	73.1 (active)
DROSHA (GeneID 29102)	Rucaparib	OCI-C5x (clear cell)	1	49.4 (active)
DROSHA (GeneID 29102)	Rucaparib	OCI-C5x (clear cell)	2	35.1 (active)
DROSHA (GeneID 29102)	Rucaparib	OCI-C5x (clear cell)	3	57.5 (active)
DROSHA (GeneID 29102)	Rucaparib	OCI-P5x (serous)	1	62.5 (active)
DROSHA (GeneID 29102)	Rucaparib	OCI-P5x (serous)	2	65.1 (active)
DROSHA (GeneID 29102)	Rucaparib	OCI-P5x (serous)	3	65.3 (active)
DROSHA (GeneID 29102)	Vehicle	OCI-C5x (clear cell)	1	38.8 (active)
DROSHA (GeneID 29102)	Vehicle	OCI-C5x (clear cell)	2	84
DROSHA (GeneID 29102)	Vehicle	OCI-C5x (clear cell)	3	40.6 (active)
DROSHA (GeneID 29102)	Vehicle	OCI-P5x (serous)	1	61.9 (active)
DROSHA (GeneID 29102)	Vehicle	OCI-P5x (serous)	2	67.7 (active)
DROSHA (GeneID 29102)	Vehicle	OCI-P5x (serous)	3	108
DLG3 (GeneID 1741)	Rucaparib	OCI-C5x (clear cell)	1	44.1 (active)
DLG3 (GeneID 1741)	Rucaparib	OCI-C5x (clear cell)	2	44.6 (active)
DLG3 (GeneID 1741)	Rucaparib	OCI-C5x (clear cell)	3	45.8 (active)
DLG3 (GeneID 1741)	Rucaparib	OCI-P5x (serous)	1	84.4
DLG3 (GeneID 1741)	Rucaparib	OCI-P5x (serous)	2	78.5 (active)
DLG3 (GeneID 1741)	Rucaparib	OCI-P5x (serous)	3	75.1 (active)
DLG3 (GeneID 1741)	Vehicle	OCI-C5x (clear cell)	1	67 (active)
DLG3 (GeneID 1741)	Vehicle	OCI-C5x (clear cell)	2	51.7 (active)
DLG3 (GeneID 1741)	Vehicle	OCI-C5x (clear cell)	3	51.9 (active)
DLG3 (GeneID 1741)	Vehicle	OCI-P5x (serous)	1	71.5 (active)
DLG3 (GeneID 1741)	Vehicle	OCI-P5x (serous)	2	83.8
DLG3 (GeneID 1741)	Vehicle	OCI-P5x (serous)	3	75.3 (active)

7 entries from above, arranged by “viability, normalised (%)”, highest first.
target	rucaparib or vehicle	cell line	technical replicate	viability, normalised (%)
MTRFR (GeneID 91574)	Vehicle	OCI-P5x (serous)	3	73.1 (active)
MTRFR (GeneID 91574)	Vehicle	OCI-P5x (serous)	2	66.2 (active)
DROSHA (GeneID 29102)	Rucaparib	OCI-P5x (serous)	2	65.1 (active)
DROSHA (GeneID 29102)	Rucaparib	OCI-P5x (serous)	1	62.5 (active)
DROSHA (GeneID 29102)	Rucaparib	OCI-C5x (clear cell)	3	57.5 (active)
DROSHA (GeneID 29102)	Rucaparib	OCI-C5x (clear cell)	1	49.4 (active)
DROSHA (GeneID 29102)	Rucaparib	OCI-C5x (clear cell)	2	35.1 (active)

The list goes on.
target	rucaparib or vehicle	cell line	technical replicate	viability, normalised (%)
TIE1 (GeneID 7075)	Rucaparib	OCI-C5x (clear cell)	1	52.3 (active)
TIE1 (GeneID 7075)	Rucaparib	OCI-C5x (clear cell)	1	38.5 (active)
TIE1 (GeneID 7075)	Rucaparib	OCI-C5x (clear cell)	2	44.3 (active)
TIE1 (GeneID 7075)	Rucaparib	OCI-C5x (clear cell)	2	55.5 (active)
TIE1 (GeneID 7075)	Rucaparib	OCI-C5x (clear cell)	3	47.4 (active)
TIE1 (GeneID 7075)	Rucaparib	OCI-C5x (clear cell)	3	62.4 (active)
TIE1 (GeneID 7075)	Rucaparib	OCI-P5x (serous)	1	54.8 (active)
TIE1 (GeneID 7075)	Rucaparib	OCI-P5x (serous)	1	104
TIE1 (GeneID 7075)	Rucaparib	OCI-P5x (serous)	2	59.5 (active)
TIE1 (GeneID 7075)	Rucaparib	OCI-P5x (serous)	2	102
TIE1 (GeneID 7075)	Rucaparib	OCI-P5x (serous)	3	62.9 (active)
TIE1 (GeneID 7075)	Rucaparib	OCI-P5x (serous)	3	101
TIE1 (GeneID 7075)	Vehicle	OCI-C5x (clear cell)	1	60.8 (active)
TIE1 (GeneID 7075)	Vehicle	OCI-C5x (clear cell)	1	50.8 (active)
TIE1 (GeneID 7075)	Vehicle	OCI-C5x (clear cell)	2	49.1 (active)
TIE1 (GeneID 7075)	Vehicle	OCI-C5x (clear cell)	2	47.8 (active)
TIE1 (GeneID 7075)	Vehicle	OCI-C5x (clear cell)	3	36.2 (active)
TIE1 (GeneID 7075)	Vehicle	OCI-C5x (clear cell)	3	47.9 (active)
TIE1 (GeneID 7075)	Vehicle	OCI-P5x (serous)	1	86.6
TIE1 (GeneID 7075)	Vehicle	OCI-P5x (serous)	1	62.2 (active)
TIE1 (GeneID 7075)	Vehicle	OCI-P5x (serous)	2	77.3 (active)
TIE1 (GeneID 7075)	Vehicle	OCI-P5x (serous)	2	63.6 (active)
TIE1 (GeneID 7075)	Vehicle	OCI-P5x (serous)	3	81.4
TIE1 (GeneID 7075)	Vehicle	OCI-P5x (serous)	3	106
